The campaign covered roughly 580,000 compounds. About 6,100 (1.1%) were called active. The inconclusive results got no clear call from the source; some entries with a clear call stand among them for comparison. Calls come from the whole dose curve; as a rule, active = well fitted inhibition curve with a large enough effect; inconclusive = small, poorly fitted or top-dose-only effect, or another doubt; inactive = no such curve, though single readings can be large or run the other way. Where the call is inconclusive, the potency comes from a doubtful curve fit.
Biological target: Polyunsaturated fatty acid lipoxygenase ALOX12 (Homo sapiens) (UniProt P18054)
Experiment: Primary qHTS assay for inhibitors of human arachidonate 12S-lipoxygenase (ALOX12): Round 2
Conditions: purified 12hLO, xylenol orange hydroperoxide absorbance; activity change, negative = inhibition: at 108 µM (top of the series) unless noted
How it was run: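 Purified human 12hLO (150 nM final) in 25 mM Hepes, 0.01% Triton X-100, pH 7.0 was preincubated 15 min at room temperature with compound. Then 40 uM arachidonic acid was added, 30 min. Hydroperoxide was read by Fe-XO absorbance ratio 573/405 nm.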
% is set by controls: 0 for no effect and ±100 for the full control effect; potency is the fitted concentration of half-maximal effect.

Sequences of proteins named here, by UniProt entry; tags and fusion partners are left off. A change or cut given only in a name is not applied to a line headed by its entry.
UniProt P18054: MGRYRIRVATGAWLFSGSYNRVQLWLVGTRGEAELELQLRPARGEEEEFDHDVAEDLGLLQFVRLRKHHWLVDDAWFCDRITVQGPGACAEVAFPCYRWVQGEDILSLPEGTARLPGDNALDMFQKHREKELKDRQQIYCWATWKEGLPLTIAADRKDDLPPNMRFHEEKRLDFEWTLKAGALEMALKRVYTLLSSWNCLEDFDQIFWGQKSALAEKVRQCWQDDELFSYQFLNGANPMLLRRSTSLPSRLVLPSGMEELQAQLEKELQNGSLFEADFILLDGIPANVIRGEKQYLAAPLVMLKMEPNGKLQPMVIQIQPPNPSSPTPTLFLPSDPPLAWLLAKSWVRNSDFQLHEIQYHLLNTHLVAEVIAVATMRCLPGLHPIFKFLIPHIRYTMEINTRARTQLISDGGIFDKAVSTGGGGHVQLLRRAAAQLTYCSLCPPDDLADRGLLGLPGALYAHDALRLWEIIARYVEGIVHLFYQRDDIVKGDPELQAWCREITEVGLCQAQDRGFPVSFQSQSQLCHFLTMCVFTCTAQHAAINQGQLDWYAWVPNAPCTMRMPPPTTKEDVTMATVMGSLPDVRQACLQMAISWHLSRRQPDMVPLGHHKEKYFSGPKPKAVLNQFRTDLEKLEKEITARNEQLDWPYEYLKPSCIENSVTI

Row | Compound | Potency | activity change, negative = inhibition
1 | N#Cc1ccc(C(=O)N2CCC3(CC2)NC(=O)N(Cc2ccc(F)cc2)C3=O)cc1 | inconclusive: 17.8 µM [inhibitor, full curve] | –
2 | COCCN1C[C@H]2CN(C(=O)NCc3ccccc3)CCN2C1=O | inconclusive: 25.1 µM [inhibitor, full curve] | –
3 | O=C(COC(=O)c1ccccc1)c1ccc(-c2ccccc2)cc1 | inactive | –
4 | c1cn(-c2ncnc3ccc(-c4ccoc4)cc23)cn1 | inactive | –
5 | Cc1cc(=O)n2[nH]c(CN(C(=O)c3ccc(F)cc3)c3ccc(Cl)cc3)nc2n1 | inconclusive: 3.16 µM [inhibitor, full curve, poor fit] | –
6 | O=C(CSc1n[nH]c(-c2ccc(Br)cc2)n1)NC1CCCC1 | inconclusive: 158 µM [inhibitor, single point] | –
7 | Cn1nnc2cc(C(=O)NCc3ccco3)ccc21 | inconclusive: 50.1 µM [inhibitor, partial curve, poor fit] | –
8 | C#CCN(C[C@@H]1[C@@H](OC(=O)Nc2cccs2)[C@@H](OC(=O)Nc2cccs2)Cn2c(=O)ccc(=O)n21)S(=O)(=O)c1ccc(C)cc1 | inconclusive: 8.91 µM [inhibitor, full curve] | –
9 | COCC(=O)N1CCC2(CC1)CN(C(=O)Nc1ccc(OC)cc1)C2 | inconclusive: 28.2 µM [inhibitor, single point] | –
10 | Cc1ccc(N/N=C/c2cccc(C(F)(F)F)c2)cc1Cl | active: 3.55 µM | –
11 | COc1ccc2c3c1OC1C[C@@H](O)C=C[C@@]31CCN(C)C2 (stereo not given in full) | inconclusive: 17.2 µM [inhibitor, partial curve] | –
12 | Cc1ccc2[nH]c(=O)c(C3=NN(C(=O)c4cccs4)C(c4ccco4)C3)c(-c3ccccc3)c2c1 (stereo not given) | inconclusive: 50.1 µM [inhibitor, partial curve, poor fit] | –
13 | COc1ccc(NC(=O)c2cc(OC)c3cc(Cl)ccc3n2)cc1 | inactive | –
14 | Cc1ccc(CN2C[C@@H](NC(=O)c3cccnc3)C[C@H]2CO)s1 | inconclusive: 14.1 µM [inhibitor, full curve] | –
15 | C[C@@H]1CN([C@@H](C)CO)S(=O)(=O)c2ccc(Br)cc2O[C@@H]1CN(C)Cc1ccc2c(c1)OCO2 | – | inconclusive: -53.4% [inhibitor]
16 | O=C(CSc1cn(CC(=O)N2CCOCC2)c2ccccc12)Nc1ccc(Br)cc1 | inactive | –
17 | Cc1ccc(-n2ncc3c(=O)[nH]cnc32)c(C)c1 | inconclusive: 100 µM [inhibitor, single point] | –
18 | COc1ccc(N2C(=O)C(Cl)=C(Nc3ccccc3O)C2=O)cc1 | inconclusive: 22.4 µM [inhibitor, partial curve, poor fit] | –
19 | CN1C(=S)SC(C)(C)C1/[N+]([O-])=C/c1ccccc1 (stereo not given) | inconclusive: 126 µM [inhibitor, single point] | –
20 | Cn1c(SCc2ccc(F)cc2)nc(=O)c2c1NC(=O)CC2c1ccc(F)c(Br)c1 (stereo not given) | inconclusive: 56.2 µM [inhibitor, partial curve, poor fit] | –
21 | COc1cc2nc(-c3ccc(Br)o3)oc(=O)c2cc1OC | inconclusive: 25.1 µM [inhibitor, partial curve, poor fit] | –
22 | O=C(NCc1ccc(N2CCCC2=O)cc1)c1ccc(F)cc1 | inactive | –

Row | Compound | Potency | activity change, negative = inhibition
23 | CCOc1ccccc1CN1CCN(c2ccc(C#N)cn2)CC1CCO (stereo not given) | inconclusive: 2.82 µM [inhibitor, full curve, poor fit] | –
24 | COc1cccc(CNC(=O)c2ccc(-c3nc(CSc4ccccc4)c(C)o3)cc2)c1 | inactive | –
25 | CCn1cc2nc(SCc3ccccc3Cl)n(Cc3ccc(OC)cc3)c(=O)c2n1 | inconclusive: 0.316 µM [inhibitor, full curve, poor fit] | –
26 | O=C(COc1ccc(Cl)cc1Cl)NN1C(=O)/C(=C\c2ccc(Cl)cc2)SC1=S | inconclusive: 35.5 µM [inhibitor, partial curve, poor fit] | –
27 | COc1cccc(NC(=O)NCc2c(-c3ccccc3)noc2C)c1 | inconclusive: 126 µM [inhibitor, single point] | –
28 | CSc1ccc(S(=O)(=O)NCC(=O)OC(C)C(=O)NCc2ccccc2)cc1[N+](=O)[O-] (stereo not given) | inconclusive: 56.2 µM [inhibitor, partial curve, poor fit] | –
29 | N#Cc1ccccc1S(=O)(=O)N1CCN(CC(O)c2ccccc2)CC1 (stereo not given) | inconclusive: 1.58 µM [inhibitor, full curve] | –
30 | CCc1ccc2oc(C(=O)N(Cc3ccc(C(C)C)cc3)C3CCS(=O)(=O)C3)cc(=O)c2c1 (stereo not given) | inactive | –
31 | Cc1noc(-c2cn(C3CCN(C(=O)c4cc(F)ccc4F)C3)nn2)n1 (stereo not given) | inconclusive: 39.8 µM [inhibitor, partial curve, poor fit] | –
32 | NC(=O)C1CCN(C(=O)COc2ccc3c4c(c(=O)oc3c2)CCCC4)CC1 | inactive | –
33 | CCN1c2cc(C(=O)Nc3cc(C)cc(C)c3)ccc2C(=O)N2CCCCC21 (stereo not given) | inconclusive: 20 µM [inhibitor, full curve, poor fit] | –
34 | O=C(C1CCCO1)N1CCN(c2c3c(nc4cc(-c5ccc(F)cc5)nn24)CCC3)CC1 (stereo not given) | inconclusive: 3.55 µM [inhibitor, full curve, poor fit] | –
35 | Cc1cccc(C)c1NC(=O)C1c2ccccc2OCC(=O)N1CC(F)(F)F (stereo not given) | inconclusive: 112 µM [inhibitor, single point] | –
36 | CCc1cccc(NC(=O)COC(=O)c2cc([N+](=O)[O-])ccc2N2CCOCC2)c1 | inconclusive: 63.1 µM [inhibitor, partial curve, poor fit] | –
37 | COc1ccc(C(Nc2ccccn2)c2ccc3ccc(C)nc3c2O)cc1C (stereo not given) | inconclusive: 20 µM [inhibitor, full curve, poor fit] | –
38 | Cn1c(=O)cc(SCC(=O)Nc2ccc3c(c2)OCO3)c2ccccc21 | inconclusive: 35.5 µM [inhibitor, partial curve, poor fit] | –
39 | Nc1nonc1C(=O)NCCN=Cc1ccccc1O | inactive | –
40 | COCCn1nnnc1C(c1ccc(OC)cc1)N1CCC(C)CC1 (stereo not given) | inconclusive: 1.58 µM [inhibitor, partial curve, poor fit] | –
41 | COC(=O)C1CN(Cc2ccc(C)cc2)CCS(=O)(=O)N1Cc1cn(Cc2ccccc2)nn1 (stereo not given) | inconclusive: 35.5 µM [inhibitor, partial curve, poor fit] | –
42 | CCCCCC(=O)N[C@H]1C[C@@H](Cc2cc(COc3ccccc3)on2)C1(C)C | inconclusive: 112 µM [inhibitor, single point] | –
43 | CC(C)C(=O)Nc1ccc(Cl)c(C(N)=O)c1 | inactive | –
44 | CCNC(=O)N1CCCCCC1CN1CCCC1 (stereo not given) | inactive | –

Row | Compound | Potency | activity change, negative = inhibition
45 | O=C(c1ncn[nH]1)N1CCN(c2cc(C3CC(O)C3)ncn2)CC1 (stereo not given) | inconclusive: 14.1 µM [inhibitor, full curve, poor fit] | –
46 | CCc1nc2c(OCCC3CCCCC3)cccn2c1N(C)C(=O)COc1ccccc1 | inconclusive: 44.7 µM [inhibitor, partial curve, poor fit] | –
47 | COc1ccccc1C(=O)NC(=S)Nc1ccc(N2CCOCC2)c(Cl)c1 | inconclusive: 35.5 µM [inhibitor, partial curve, poor fit] | –
48 | CC(=O)N1CCCC(c2nc(-c3cccnc3)no2)CCNC(=O)CC1 (stereo not given) | inactive | –
49 | COc1cccc(-c2nccc(NCc3cccc(C)c3)n2)c1 | inconclusive: 5.01 µM [inhibitor, full curve, poor fit] | –
50 | CN(c1ccc(C(=O)Nc2ccc(Cl)cn2)cc1)S(=O)(=O)c1ccccc1 | inactive | –
51 | c1ccc(C2=Nn3c(nnc3-c3cc(-c4ccccc4)n[nH]3)SC2)cc1 | inactive | –
52 | O=C(Cc1cccc(NC(=O)C2CCN(C(=O)C3CCCCC3)CC2)c1)Nc1cccc(C(=O)N2CCCC2)c1 | inconclusive: 39.8 µM [inhibitor, partial curve, poor fit] | –
53 | COc1ccc(C)cc1NC(=O)c1ccc(CN2CCN(c3ccccc3)CC2)cc1 | inactive | –
54 | O=C(O)c1ccccc1C(=O)Nc1ccc(Br)c2cccnc12 | inconclusive: 1 µM [inhibitor, full curve, poor fit] | –
55 | CC(/C=C/c1ccc(Cl)o1)=C\C(=O)O | inconclusive: 25.1 µM [inhibitor, single point] | –
56 | Cc1cc(Br)cn2c(Cc3ccccc3)c(-c3cccc(Br)c3)nc12 | inconclusive: 12.6 µM [inhibitor, full curve] | –
57 | O=C(Nc1ccccc1Cl)C1CC(=O)N(c2ccccc2)C1 (stereo not given) | inactive | –
58 | COc1ccc(NC(=O)C2C(c3ccc4c(c3)OCO4)=Nc3ccccc3N2C(=O)c2cccc(C(F)(F)F)c2)cc1 (stereo not given) | inconclusive: 100 µM [inhibitor, single point] | –
59 | COC(=O)CSc1n[nH]c(=S)s1 | inconclusive: 39.8 µM [inhibitor, partial curve, poor fit] | –
60 | O=C(CCNS(=O)(=O)c1ccccc1)OCC(=O)c1ccc(Cl)cc1 | inconclusive: 126 µM [inhibitor, partial curve, poor fit] | –
61 | COc1cccc(Nc2cnc3ccc(-c4ccc(F)cc4)nn23)c1 | inactive | –
62 | Cc1ccc(-c2cn3c4ccccc4nc3n2CCCN2CCCC2)cc1 | inconclusive: 17.8 µM [inhibitor, full curve] | –
63 | CN1CCN(CCOc2cccc(Cl)c2)CC1 | inconclusive: 7.94 µM [inhibitor, full curve, poor fit] | –
64 | O=C(CN1C(=O)C2CC=CCC2C1=O)Nc1nnc(SCc2ccc(Cl)cc2)s1 (stereo not given) | inconclusive: 100 µM [inhibitor, single point] | –
65 | CCc1noc(C)c1C(=O)Nc1sc(C(=O)N(C)C)c(C)c1C#N | inconclusive: 56.2 µM [inhibitor, single point] | –

Entries of single compounds, looked up by structure:
COc1ccccc1C(=O)NC(=S)Nc1ccc(N2CCOCC2)c(Cl)c1 is listed with Potency: inconclusive: 35.5 µM [inhibitor, partial curve, poor fit]
O=C(CN1C(=O)C2CC=CCC2C1=O)Nc1nnc(SCc2ccc(Cl)cc2)s1 (stereo not given) is listed with Potency: inconclusive: 100 µM [inhibitor, single point]
O=C(CCNS(=O)(=O)c1ccccc1)OCC(=O)c1ccc(Cl)cc1 is listed with Potency: inconclusive: 126 µM [inhibitor, partial curve, poor fit]
COc1cccc(Nc2cnc3ccc(-c4ccc(F)cc4)nn23)c1 is listed with Potency: inactive

Reference: PubChem BioAssay AID1671190 (National Center for Advancing Translational Sciences (NCATS), 2021)
